Results on 1 compound are retold here after PMC5410595, “In Vitro and In Silico Antidiabetic and Antimicrobial Evaluation of Constituents from Kickxia ramosissima (Nanorrhinum ramosissimum)” (Frontiers in Pharmacology, 2017).

For orientation: IC50 means the concentration at which inhibition is half-maximal.

The subject of this experiment is Plasmodium falciparum K1. The experiment in a line: Antimicrobial screening panel: Plasmodium falciparum. Type of experiment: cell-based. The conditions noted are these: K1, read-out: IC50 Plasmodium falciparum K1. As for the experimental part: Fractions and isolated compounds were evaluated for antimicrobial activity in an integrated screening panel, also including the human MRC-5 cell line to assess selectivity, as reported before ([Cos et al., 2006]; [Mesia et al., 2008]; [Baldé et al., 2010]; [Amin et al., 2016]).

With `CCN(CC)CCCC(C)Nc1ccnc2cc(Cl)ccc12` (stereo not shown) [chloroquine, reference compound], the IC50 amounted to 0.08 µM.
